The target of the assay is FLAG-TRIM6 (tripartite motif-containing protein 6) (human) (UniProt Q9C030). As to the kind of experiment: affinity purification with mass spectrometry; FLAG-TRIM6 expressed in HEK293T; RIPA extracts pre-cleared with IgG and protein A/G beads, incubated with anti-FLAG beads overnight at 4°C, eluted with FLAG peptide; SDS-PAGE bands analysed by LC/MS.

Chains of the proteins cited; added tags and fusions are not shown.
UniProt Q9C030: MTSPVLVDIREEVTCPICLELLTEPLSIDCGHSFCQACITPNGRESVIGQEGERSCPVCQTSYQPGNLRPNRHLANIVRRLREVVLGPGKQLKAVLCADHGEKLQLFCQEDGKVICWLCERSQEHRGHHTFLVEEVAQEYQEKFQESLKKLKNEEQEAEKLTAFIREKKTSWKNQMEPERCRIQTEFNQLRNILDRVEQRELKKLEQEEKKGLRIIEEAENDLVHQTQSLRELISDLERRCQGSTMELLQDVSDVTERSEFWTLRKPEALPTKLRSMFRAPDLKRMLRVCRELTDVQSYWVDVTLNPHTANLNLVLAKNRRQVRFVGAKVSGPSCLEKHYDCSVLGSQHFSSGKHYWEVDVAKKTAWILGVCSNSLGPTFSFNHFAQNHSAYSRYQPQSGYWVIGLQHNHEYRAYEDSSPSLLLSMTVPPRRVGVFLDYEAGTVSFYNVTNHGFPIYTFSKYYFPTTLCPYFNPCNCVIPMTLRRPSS

These are yes or no findings as the source states them, for the method shown. Binding seen in cells or lysates may run through a third protein. A yes stands for co-enrichment or nearness to the bait. Other partners may have been found.

B1: TSC1 (tuberous sclerosis protein 1), endogenous in HEK293T (protein, UniProt Q92574 1-1164)
chain: MAQQANVGELLAMLDSPMLGVRDDVTAVFKENLNSDRGPMLVNTLVDYYLETSSQPALHILTTLQEPHDKHLLDRINEYVGKAATRLSILSLLGHVIRLQPSWKHKLSQAPLLPSLLKCLKMDTDVVVLTTGVLVLITMLPMIPQSGKQHLLDFFDIFGRLSSWCLKKPGHVAEVYLVHLHASVYALFHRLYGMYPCNFVSFLRSHYSMKENLETFEEVVKPMMEHVRIHPELVTGSKDHELDPRRWKRLETHDVVIECAKISLDPTEASYEDGYSVSHQISARFPHRSADVTTSPYADTQNSYGCATSTPYSTSRLMLLNMPGQLPQTLSSPSTRLITEPPQATLWSPSMVCGMTTPPTSPGNVPPDLSHPYSKVFGTTAGGKGTPLGTPATSPPPAPLCHSDDYVHISLPQATVTPPRKEERMDSARPCLHRQHHLLNDRGSEEPPGSKGSVTLSDLPGFLGDLASEEDSIEKDKEEAAISRELSEITTAEAEPVVPRGGFDSPFYRDSLPGSQRKTHSAASSSQGASVNPEPLHSSLDKLGPDTPKQAFTPIDLPCGSADESPAGDRECQTSLETSIFTPSPCKIPPPTRVGFGSGQPPPYDHLFEVALPKTAHHFVIRKTEELLKKAKGNTEEDGVPSTSPMEVLDRLIQQGADAHSKELNKLPLPSKSVDWTHFGGSPPSDEIRTLRDQLLLLHNQLLYERFKRQQHALRNRRLLRKVIKAAALEEHNAAMKDQLKLQEKDIQMWKVSLQKEQARYNQLQEQRDTMVTKLHSQIRQLQHDREEFYNQSQELQTKLEDCRNMIAELRIELKKANNKVCHTELLLSQVSQKLSNSESVQQQMEFLNRQLLVLGEVNELYLEQLQNKHSDTTKEVEMMKAAYRKELEKNRSHVLQQTQRLDTSQKRILELESHLAKKDHLLLEQKKYLEDVKLQARGQLQAAESRYEAQKRITQVFELEILDLYGRLEKDGLLKKLEEEKAEAAEAAEERLDCCNDGCSDSMVGHNEEASGHNGETKTPRPSSARGSSGSRGGGGSSSSSSELSTPEKPPHQRAGPFSSRWETTMGEASASIPTTVGSLPSSKSFLGMKARELFRNKSESQCDEDGMTSSLSESLKTELGKDLGVEAKIPLNLDGPHPSPPTPDSVGQLHIMDYNETHHEHS
In the case of B1, the binding result was “binds”.

Values taken from publication PMC7901959.
